From paper PMC10879859
These are yes or no findings as the source states them, for the method shown. Binding seen in cells or lysates may run through a third protein. Some results given as binding are weak or reduced against the parent protein; the word gives no strength. For some assays here: Sequences can lack the tags named with a protein. One block for each molecule: values may come before it.

Chains of the proteins cited; added tags and fusions are not shown. Lines headed by an entry give the natural chain unless they say otherwise; changes in a name come on top. Residues count along the entry.
UniProt P29144: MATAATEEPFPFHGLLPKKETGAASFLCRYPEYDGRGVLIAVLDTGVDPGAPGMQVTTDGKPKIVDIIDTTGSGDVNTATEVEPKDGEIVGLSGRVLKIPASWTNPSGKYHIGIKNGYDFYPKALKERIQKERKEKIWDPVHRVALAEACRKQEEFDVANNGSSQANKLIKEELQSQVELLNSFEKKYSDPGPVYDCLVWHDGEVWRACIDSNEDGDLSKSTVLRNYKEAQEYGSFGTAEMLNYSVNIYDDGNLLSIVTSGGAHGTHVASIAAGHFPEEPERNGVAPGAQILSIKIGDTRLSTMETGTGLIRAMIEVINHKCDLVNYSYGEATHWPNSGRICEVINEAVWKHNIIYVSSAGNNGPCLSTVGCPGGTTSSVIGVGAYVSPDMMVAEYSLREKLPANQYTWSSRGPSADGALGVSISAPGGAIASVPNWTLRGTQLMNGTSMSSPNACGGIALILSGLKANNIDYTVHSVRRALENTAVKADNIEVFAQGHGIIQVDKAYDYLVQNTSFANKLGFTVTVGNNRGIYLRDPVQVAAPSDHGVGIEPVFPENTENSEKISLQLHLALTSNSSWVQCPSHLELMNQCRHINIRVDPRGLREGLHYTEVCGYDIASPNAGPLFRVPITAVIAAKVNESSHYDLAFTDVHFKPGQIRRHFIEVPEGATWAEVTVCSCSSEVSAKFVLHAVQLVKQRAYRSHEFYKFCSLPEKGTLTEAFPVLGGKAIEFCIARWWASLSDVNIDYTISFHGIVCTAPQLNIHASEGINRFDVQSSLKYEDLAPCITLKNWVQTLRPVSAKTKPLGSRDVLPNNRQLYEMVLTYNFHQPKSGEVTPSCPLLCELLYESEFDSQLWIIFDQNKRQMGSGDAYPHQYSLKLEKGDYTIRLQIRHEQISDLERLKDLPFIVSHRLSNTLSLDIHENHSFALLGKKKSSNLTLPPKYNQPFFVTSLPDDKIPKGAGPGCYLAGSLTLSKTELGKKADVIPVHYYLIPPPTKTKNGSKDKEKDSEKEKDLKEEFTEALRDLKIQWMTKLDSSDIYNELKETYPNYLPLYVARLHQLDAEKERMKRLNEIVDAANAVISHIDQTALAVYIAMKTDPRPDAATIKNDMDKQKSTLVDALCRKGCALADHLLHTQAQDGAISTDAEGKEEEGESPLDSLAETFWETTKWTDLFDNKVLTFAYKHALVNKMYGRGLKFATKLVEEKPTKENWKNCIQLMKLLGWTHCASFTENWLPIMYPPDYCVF
truncated TPP2 mutant with deletion of its conserved C domain (AA 508-1249): residues 1-507 of P29144
UniProt F6VAN0: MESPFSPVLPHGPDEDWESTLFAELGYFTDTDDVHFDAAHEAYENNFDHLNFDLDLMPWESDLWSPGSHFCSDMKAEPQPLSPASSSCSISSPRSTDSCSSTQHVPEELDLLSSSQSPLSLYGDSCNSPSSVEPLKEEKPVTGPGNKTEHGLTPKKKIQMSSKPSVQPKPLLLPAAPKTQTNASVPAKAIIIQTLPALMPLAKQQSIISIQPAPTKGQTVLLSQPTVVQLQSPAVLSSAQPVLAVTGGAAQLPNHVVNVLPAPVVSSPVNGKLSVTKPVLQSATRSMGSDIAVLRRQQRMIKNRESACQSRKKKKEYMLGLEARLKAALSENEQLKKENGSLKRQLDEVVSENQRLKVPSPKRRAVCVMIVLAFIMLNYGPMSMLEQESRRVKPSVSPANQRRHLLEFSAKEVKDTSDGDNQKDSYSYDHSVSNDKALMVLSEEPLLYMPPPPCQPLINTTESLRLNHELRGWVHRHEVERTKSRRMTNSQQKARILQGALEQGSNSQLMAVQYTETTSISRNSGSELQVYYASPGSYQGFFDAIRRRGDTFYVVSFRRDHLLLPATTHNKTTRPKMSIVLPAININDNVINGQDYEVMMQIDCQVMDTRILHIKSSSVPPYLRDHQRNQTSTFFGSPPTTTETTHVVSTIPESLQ
UniProt Q64514: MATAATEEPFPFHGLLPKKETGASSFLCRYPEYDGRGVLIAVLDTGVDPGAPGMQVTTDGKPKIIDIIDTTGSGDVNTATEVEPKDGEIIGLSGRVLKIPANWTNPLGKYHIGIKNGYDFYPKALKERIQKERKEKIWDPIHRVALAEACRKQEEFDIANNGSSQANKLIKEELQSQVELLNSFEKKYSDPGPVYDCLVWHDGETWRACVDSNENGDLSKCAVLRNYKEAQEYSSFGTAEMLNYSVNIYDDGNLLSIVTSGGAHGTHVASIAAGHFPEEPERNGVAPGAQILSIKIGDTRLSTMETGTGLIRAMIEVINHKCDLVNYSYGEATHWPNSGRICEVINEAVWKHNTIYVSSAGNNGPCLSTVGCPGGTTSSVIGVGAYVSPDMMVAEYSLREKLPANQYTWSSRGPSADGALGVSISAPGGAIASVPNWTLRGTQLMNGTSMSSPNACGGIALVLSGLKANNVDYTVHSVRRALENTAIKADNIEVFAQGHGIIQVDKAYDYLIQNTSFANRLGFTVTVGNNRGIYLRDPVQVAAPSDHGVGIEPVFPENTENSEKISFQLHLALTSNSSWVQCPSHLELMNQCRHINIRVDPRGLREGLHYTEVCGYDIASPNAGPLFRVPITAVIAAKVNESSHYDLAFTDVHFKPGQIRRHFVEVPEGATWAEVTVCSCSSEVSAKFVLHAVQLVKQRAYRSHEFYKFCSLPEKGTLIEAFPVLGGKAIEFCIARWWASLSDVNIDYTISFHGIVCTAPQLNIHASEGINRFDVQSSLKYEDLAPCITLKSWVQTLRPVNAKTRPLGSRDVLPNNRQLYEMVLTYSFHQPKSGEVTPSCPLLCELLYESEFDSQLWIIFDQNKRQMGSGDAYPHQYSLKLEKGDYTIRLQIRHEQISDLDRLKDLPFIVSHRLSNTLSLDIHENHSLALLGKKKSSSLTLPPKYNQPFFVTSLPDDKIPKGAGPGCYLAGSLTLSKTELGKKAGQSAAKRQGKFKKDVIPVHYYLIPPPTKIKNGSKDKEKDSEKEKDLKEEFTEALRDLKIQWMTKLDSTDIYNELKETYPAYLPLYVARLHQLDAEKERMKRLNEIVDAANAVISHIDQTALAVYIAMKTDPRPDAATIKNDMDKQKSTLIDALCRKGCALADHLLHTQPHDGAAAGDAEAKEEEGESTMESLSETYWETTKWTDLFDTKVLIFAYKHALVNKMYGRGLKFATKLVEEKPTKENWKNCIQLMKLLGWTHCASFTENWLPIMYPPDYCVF
UniProt P18850: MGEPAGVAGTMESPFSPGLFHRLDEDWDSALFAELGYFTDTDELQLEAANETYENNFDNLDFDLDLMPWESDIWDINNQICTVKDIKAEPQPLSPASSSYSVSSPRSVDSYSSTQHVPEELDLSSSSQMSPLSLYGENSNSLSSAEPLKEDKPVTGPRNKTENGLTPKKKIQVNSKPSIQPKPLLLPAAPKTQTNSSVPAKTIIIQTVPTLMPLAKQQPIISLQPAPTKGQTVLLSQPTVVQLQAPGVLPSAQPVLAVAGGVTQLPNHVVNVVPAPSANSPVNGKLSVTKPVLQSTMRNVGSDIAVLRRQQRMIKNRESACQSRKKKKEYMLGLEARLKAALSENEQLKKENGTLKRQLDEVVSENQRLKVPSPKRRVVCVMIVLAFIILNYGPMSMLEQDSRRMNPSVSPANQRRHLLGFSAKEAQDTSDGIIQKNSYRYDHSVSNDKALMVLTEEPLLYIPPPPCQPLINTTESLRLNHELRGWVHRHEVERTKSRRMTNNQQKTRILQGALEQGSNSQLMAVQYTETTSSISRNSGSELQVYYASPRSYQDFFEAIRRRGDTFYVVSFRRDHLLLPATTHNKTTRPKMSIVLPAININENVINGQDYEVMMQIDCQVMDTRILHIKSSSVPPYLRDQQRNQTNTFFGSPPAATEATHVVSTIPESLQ
UniProt Q8R429: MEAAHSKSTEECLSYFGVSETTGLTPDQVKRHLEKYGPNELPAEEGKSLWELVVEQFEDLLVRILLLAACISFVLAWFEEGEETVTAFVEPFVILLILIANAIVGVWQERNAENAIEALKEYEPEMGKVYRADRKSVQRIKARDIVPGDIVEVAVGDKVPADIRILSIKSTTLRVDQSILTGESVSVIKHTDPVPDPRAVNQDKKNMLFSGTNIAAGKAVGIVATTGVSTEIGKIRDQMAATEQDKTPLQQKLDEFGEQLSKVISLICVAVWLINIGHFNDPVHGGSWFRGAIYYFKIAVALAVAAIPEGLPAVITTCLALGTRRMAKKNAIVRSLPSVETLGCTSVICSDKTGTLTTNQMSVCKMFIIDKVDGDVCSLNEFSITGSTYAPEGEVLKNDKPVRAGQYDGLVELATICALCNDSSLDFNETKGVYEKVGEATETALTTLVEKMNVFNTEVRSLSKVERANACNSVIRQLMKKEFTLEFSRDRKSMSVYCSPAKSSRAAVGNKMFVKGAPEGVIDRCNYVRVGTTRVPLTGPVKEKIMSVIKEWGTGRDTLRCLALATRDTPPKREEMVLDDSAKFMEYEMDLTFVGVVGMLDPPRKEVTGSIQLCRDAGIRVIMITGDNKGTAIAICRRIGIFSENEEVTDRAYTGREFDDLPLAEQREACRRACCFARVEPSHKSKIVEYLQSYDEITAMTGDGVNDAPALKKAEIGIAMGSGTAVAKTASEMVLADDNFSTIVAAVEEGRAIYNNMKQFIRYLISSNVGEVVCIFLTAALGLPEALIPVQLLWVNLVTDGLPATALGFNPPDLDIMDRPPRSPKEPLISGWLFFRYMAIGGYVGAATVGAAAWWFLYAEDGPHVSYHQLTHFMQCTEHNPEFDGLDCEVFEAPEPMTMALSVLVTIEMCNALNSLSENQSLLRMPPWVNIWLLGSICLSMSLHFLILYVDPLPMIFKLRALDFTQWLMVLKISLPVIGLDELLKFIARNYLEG
UniProt O14983: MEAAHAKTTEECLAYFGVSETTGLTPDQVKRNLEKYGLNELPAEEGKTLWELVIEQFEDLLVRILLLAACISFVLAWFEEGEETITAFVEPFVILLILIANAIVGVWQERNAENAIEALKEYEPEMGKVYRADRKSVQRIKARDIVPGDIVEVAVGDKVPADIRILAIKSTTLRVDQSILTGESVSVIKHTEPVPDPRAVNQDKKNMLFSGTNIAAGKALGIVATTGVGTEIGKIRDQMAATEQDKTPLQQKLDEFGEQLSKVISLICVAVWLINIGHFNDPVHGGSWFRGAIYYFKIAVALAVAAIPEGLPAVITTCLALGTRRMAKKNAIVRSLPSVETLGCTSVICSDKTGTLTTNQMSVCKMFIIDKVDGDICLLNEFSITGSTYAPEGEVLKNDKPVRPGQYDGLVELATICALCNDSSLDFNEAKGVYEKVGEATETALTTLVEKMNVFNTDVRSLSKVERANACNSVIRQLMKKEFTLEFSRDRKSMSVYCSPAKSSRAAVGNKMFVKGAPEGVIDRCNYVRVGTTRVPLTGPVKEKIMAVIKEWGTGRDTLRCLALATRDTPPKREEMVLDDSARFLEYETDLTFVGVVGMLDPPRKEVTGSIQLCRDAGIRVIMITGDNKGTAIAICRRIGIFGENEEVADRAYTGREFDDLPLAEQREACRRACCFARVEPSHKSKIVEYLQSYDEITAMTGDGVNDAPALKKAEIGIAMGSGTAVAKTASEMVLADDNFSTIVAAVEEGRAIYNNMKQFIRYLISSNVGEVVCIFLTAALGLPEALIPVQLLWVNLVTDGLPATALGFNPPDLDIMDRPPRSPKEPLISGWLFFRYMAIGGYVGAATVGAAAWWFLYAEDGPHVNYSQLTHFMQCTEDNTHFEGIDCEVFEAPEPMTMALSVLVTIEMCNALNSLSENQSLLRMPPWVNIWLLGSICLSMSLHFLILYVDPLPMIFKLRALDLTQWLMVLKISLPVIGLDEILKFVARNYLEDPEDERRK
UniProt Q15629: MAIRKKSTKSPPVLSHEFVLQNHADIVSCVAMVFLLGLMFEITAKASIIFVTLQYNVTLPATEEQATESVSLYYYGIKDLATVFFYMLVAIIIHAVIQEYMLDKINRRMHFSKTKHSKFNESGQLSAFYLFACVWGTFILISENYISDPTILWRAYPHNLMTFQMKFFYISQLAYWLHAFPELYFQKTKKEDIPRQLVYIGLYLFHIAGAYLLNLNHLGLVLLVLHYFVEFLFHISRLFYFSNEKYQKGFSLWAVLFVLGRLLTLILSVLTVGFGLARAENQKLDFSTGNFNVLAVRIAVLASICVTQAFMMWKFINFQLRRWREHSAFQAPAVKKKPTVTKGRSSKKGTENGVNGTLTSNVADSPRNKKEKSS
UniProt Q9R0P9: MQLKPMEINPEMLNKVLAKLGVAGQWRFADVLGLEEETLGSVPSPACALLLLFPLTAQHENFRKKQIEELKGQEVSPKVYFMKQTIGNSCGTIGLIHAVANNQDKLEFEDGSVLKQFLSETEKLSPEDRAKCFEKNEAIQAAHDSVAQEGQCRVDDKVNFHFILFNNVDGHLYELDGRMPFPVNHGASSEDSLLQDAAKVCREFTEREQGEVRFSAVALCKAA

Columns and labels:
[1] = target: Tripeptidyl peptidase II (TPP2) (human (endogenous in 293T)) (UniProt P29144); experiment: proximity ligation; Duolink in situ PLA on fixed, permeabilised 293T cells, endogenous proteins; wild-type cells, with TPP2-, ATF6-, IRE1-, PERK- or CEPT1-knockout cells and TG, XeC, PC or CCTα-KDEL treatments as comparisons
[2] = target: TPP2 S449A (stably expressed in TPP2 knockout 293T cells) (UniProt P29144); experiment: co-IP; co-IP with immunoblot from 293T cell lysates (wild-type cells and TPP2 knockout clones expressing TPP2 S449A or S449T); lysis buffer 50 mM Tris-HCl pH 7.4, 1% Triton X-100, 1% n-octyl β-D-glucopyranoside, 0.1% SDS, 1 mM EDTA, 150 mM NaCl; antibody on protein G agarose, 2 h at 4°C
[3] = target: TPP2 S449T (stably expressed in TPP2 knockout 293T cells) (UniProt P29144); experiment: as above
[4] = target: Tripeptidyl peptidase II (TPP2) (human (endogenous in 293T)) (UniProt P29144); experiment: as above
[5] = target: Activating transcription factor 6 (ATF6), mouse (mouse (endogenous in hippocampal neurons and hippocampus)) (UniProt F6VAN0); experiment: co-IP; co-IP of ATF6 with immunoblot, female mouse hippocampus, WT and TPP2 knockout (p62, SEL1L and aromatase only in TPP2 knockout)
[6] = target: Activating transcription factor 6 (ATF6), mouse (mouse (endogenous in hippocampal neurons and hippocampus)) (UniProt F6VAN0); experiment: condition: only in wild-type female mouse hippocampus (TPP2 present); co-IP; co-IP of ATF6 with immunoblot, wild-type female mouse hippocampus (TPP2 present)
[7] = target: T1, rat CYP19A1-Flag (aromatase) (rat) (UniProt P22443); experiment: proximity ligation; Duolink in situ PLA of aromatase with UPS-related or autophagy-related proteins in WT and TPP2 knockout 293T cells
T1 sequence: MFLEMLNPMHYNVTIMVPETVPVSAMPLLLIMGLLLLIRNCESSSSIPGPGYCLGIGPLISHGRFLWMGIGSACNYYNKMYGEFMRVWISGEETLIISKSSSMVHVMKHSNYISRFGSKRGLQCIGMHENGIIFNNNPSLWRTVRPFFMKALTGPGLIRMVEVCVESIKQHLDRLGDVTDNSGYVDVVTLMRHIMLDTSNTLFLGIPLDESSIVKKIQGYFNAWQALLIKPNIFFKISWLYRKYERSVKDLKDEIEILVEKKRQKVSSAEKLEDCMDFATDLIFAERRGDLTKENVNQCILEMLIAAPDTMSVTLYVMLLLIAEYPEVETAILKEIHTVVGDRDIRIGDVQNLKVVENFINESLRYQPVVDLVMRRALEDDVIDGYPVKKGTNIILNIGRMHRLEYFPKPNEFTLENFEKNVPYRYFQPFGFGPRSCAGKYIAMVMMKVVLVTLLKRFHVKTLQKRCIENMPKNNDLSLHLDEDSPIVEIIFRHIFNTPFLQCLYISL

[8] = target: T1, rat CYP19A1-Flag (aromatase) (rat); experiment: condition: only in TPP2/ATF6 double knockout 293T cells; proximity ligation; Duolink in situ PLA of aromatase in TPP2/ATF6 double knockout 293T cells
[9] = target: T2, rat CYP19A1 S118A-Flag (rat) (UniProt P22443); experiment: proximity ligation; Duolink in situ PLA on TPP2 knockout 293T cells 24h after transfection with CYP19A1-FLAG or CYP19A1-S118A-FLAG expressing vector
T2 sequence: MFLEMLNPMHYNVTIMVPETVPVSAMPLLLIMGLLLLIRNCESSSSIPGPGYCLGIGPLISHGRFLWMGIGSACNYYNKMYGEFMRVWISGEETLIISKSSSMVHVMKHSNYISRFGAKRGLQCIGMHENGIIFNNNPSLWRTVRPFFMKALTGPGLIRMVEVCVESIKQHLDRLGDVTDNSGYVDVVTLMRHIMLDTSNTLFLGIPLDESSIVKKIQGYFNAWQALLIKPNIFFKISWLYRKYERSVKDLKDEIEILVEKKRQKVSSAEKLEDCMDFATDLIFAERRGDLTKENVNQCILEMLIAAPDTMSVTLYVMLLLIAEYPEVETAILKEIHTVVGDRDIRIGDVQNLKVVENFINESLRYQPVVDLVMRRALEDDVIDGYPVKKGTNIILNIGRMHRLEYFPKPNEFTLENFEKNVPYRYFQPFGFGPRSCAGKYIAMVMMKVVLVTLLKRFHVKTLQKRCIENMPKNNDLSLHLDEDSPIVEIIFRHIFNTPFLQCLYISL

[10] = target: T1, rat CYP19A1-Flag (aromatase) (rat); experiment: as above
[11] = target: T1, rat CYP19A1-Flag (aromatase) (rat); experiment: co-IP; co-IP of aromatase with immunoblot, WT and TPP2 knockout 293T cells
[12] = target: Tripeptidyl peptidase II (TPP2), mouse (mouse (endogenous in hippocampal neurons and hippocampus)) (UniProt Q64514); experiment: co-IP; co-IP with immunoblot from mouse hippocampus (P30) homogenate; same lysis buffer; antibody on protein G agarose, 2 h at 4°C
[13] = target: TPP2 S449A (ectopically expressed in TPP2 knockout mouse hippocampal neurons) (UniProt P29144); experiment: proximity ligation; Duolink in situ PLA on TPP2 knockout mouse hippocampal neurons ectopically expressing TPP2 S449A, S449T or the C terminal domain-deleted mutant
[14] = target: TPP2 S449T (ectopically expressed in TPP2 knockout mouse hippocampal neurons) (UniProt P29144); experiment: as above
[15] = target: truncated TPP2 mutant with deletion of its conserved C domain (AA 508-1249) (UniProt P29144); experiment: as above
[16] = target: Tripeptidyl peptidase II (TPP2), mouse (mouse (endogenous in hippocampal neurons and hippocampus)) (UniProt Q64514); experiment: proximity ligation; Duolink in situ PLA on DIV10 mouse primary hippocampal neurons, endogenous proteins; wild-type neurons, female shown, with TPP2 knockout and male neurons as comparisons
[17] = target: Activating transcription factor 6 (ATF6) (human (endogenous in 293T)) (UniProt P18850); experiment: co-IP; co-IP of ATF6 with immunoblot, WT and TPP2 knockout 293T cells 48h after transfection with CYP19A1-FLAG expressing vector (p62 only in TPP2 knockout cells)
[18] = target: inositol 1,4,5-triphosphate receptor (IP3R1), mouse (mouse (endogenous in hippocampal neurons and hippocampus)) (UniProt P11881); experiment: proximity ligation; Duolink in situ PLA on DIV10 mouse primary hippocampal neurons, endogenous proteins; wild-type neurons, female shown, with TPP2 knockout and male neurons as comparisons
[19] = target: sarcoendoplasmic reticulum Ca^2+ ATPase (SERCA1), mouse (mouse (endogenous in hippocampal neurons and hippocampus)) (UniProt Q8R429); experiment: as above

binding [1]: binds
binding [2]: binds
binding [3]: binds
binding [4]: binds
Molecule: Activating transcription factor 6 (ATF6) (from UniProt P18850 1-670)

binding [5]: binds
binding [6]: no binding
Molecule: suppressor/enhancer of Lin-12-like (SEL1L), mouse (from UniProt Q9Z2G6 22-790)

binding [5]: binds
Molecule: valosin-containing protein (VCP/p97), mouse (from UniProt Q01853 1-806)

binding [7]: binds
binding [8]: no binding
Molecule: family with sequence similarity 134, member B (FAM134B/JK-1/RETREG1) (from UniProt Q9H6L5 1-497)

binding [1]: binds
binding [2]: binds
binding [3]: binds
binding [4]: binds
Molecule: sarcoendoplasmic reticulum Ca^2+ ATPase (SERCA1) (from UniProt O14983 1-1001)

binding [7]: binds
binding [9]: binds
binding [10]: binds
binding [8]: no binding
Molecule: synoviolin (SYVN1/Hrd1) (from UniProt Q86TM6 1-617)

binding [11]: binds
binding [7]: binds
binding [8]: no binding
Molecule: translocating chain-associated membrane protein 1 (TRAM1) (from UniProt Q15629 1-374)

binding [12]: binds
binding [13]: binds
binding [14]: binds
binding [15]: no binding
binding [16]: binds
Molecule: sarcoendoplasmic reticulum Ca^2+ ATPase (SERCA1), mouse (from UniProt Q8R429 1-994)

binding [7]: binds
binding [9]: binds
binding [10]: binds
binding [8]: no binding
binding [17]: binds
Molecule: valosin-containing protein (VCP/p97) (from UniProt P55072 1-806)

binding [1]: binds
binding [2]: binds
binding [3]: binds
binding [4]: binds
Molecule: Inositol-requiring enzyme 1 (IRE1) (from UniProt O75460 19-977)

binding [5]: binds
Molecule: ubiquitin carboxy-terminal hydrolase l1 (UCHL1/PGP 9.5), mouse (from UniProt Q9R0P9 1-223)

binding [7]: binds
Molecule: proteasome 26S subunit, ATPase 4 (PSMC4) (from UniProt P43686 1-418)

binding [12]: binds
binding [13]: binds
binding [14]: binds
binding [15]: no binding
binding [16]: binds
binding [18]: binds
binding [19]: binds
Molecule: Inositol-requiring enzyme 1 (IRE1), mouse (from UniProt Q9EQY0 21-977)

binding [18]: binds
Molecule: calreticulin (CALR), mouse (from UniProt P14211 18-416)

binding [12]: binds
binding [13]: binds
binding [14]: binds
binding [15]: no binding
binding [16]: binds
Molecule: inositol 1,4,5-triphosphate receptor (IP3R1), mouse (from UniProt P11881 1-2749)

binding [11]: binds
binding [7]: binds
B1: B-cell receptor-associated protein 31 (BAP31/BCAP31) (protein, UniProt P51572 1-246)
chain: MSLQWTAVATFLYAEVFVVLLLCIPFISPKRWQKIFKSRLVELLVSYGNTFFVVLIVILVLLVIDAVREIRKYDDVTEKVNLQNNPGAMEHFHMKLFRAQRNLYIAGFSLLLSFLLRRLVTLISQQATLLASNEAFKKQAESASEAAKKYMEENDQLKKGAAVDGGKLDVGNAEVKLEEENRSLKADLQKLKDELASTKQKLEKAENQVLAMRKQSEGLTKEYDRLLEEHAKLQAAVDGPMDKKEE

binding [5]: binds
binding [6]: no binding
B2: aromatase (CYP19A1), mouse (enzyme, UniProt P28649 1-503)
chain: MFLEMLNPMQYNVTIMVPETVTVSAMPLLLIMGLLLLIWNCESSSSIPGPGYCLGIGPLISHGRFLWMGIGSACNYYNKMYGEFMRVWISGEETLIISKSSSMFHVMKHSHYISRFGSKRGLQCIGMHENGIIFNNNPSLWRTIRPFFMKALTGPGLVRMVEVCVESIKQHLDRLGEVTDTSGYVDVLTLMRHIMLDTSNMLFLGIPLDESAIVKKIQGYFNAWQALLIKPNIFFKISWLYRKYERSVKDLKDEIAVLVEKKRHKVSTAEKLEDCMDFATDLIFAERRGDLTKENVNQCILEMLIAAPDTMSVTLYFMLLLVAEYPEVEAAILKEIHTVVGDRDIKIEDIQNLKVVENFINESMRYQPVVDLVMRRALEDDVIDGYPVKKGTNIILNIGRMHRLEYFPKPNEFTLENFEKNVPYRYFQPFGFGPRGCAGKYIAMVMMKVVLVTLLRRFQVKTLQKRCIENIPKKNDLSLHPNEDRHLVEIIFSPRNSDKYLQQ
